No constants are given. Whether binding was seen depends on the method and setting. For some assays here: In cells and extracts the contact can be indirect. For some assays here: Tags and fused reporters may be left off the sequences shown.

Assay [1] has as its target OTK (residues 23-607: ectodomain, transmembrane segment, short cytoplasmic linker) with C-terminal mClover or mRuby2, in COS-7 cells (Drosophila) (UniProt Q6AWJ9). The assay can be described thus: FRET or BRET; FRET-FLIM in live COS-7 cells, donor mClover and acceptor mRuby2 fusions co-expressed, 37°C, donor lifetime measured. (In general: Bioluminescence resonance energy transfer reports proximity on the nanometre scale.)

For assay [2], the target named is mClover-tagged OTK wild-type (residues 23-607), solubilised from HEK293T cells (Drosophila) (UniProt Q6AWJ9). The assay can be described thus: SEC; fluorescence-detection SEC (FSEC) of HEK293T cells solubilised with 1.0% DDM/CHS, Superose 6 Increase 3.2/300, 15 mM HEPES pH 7.4, 150 mM NaCl, 0.03% DDM/CHS; compared with OTK-CD4.
Assay [3] shares this target. Put plainly: native gel or EMSA; blue native PAGE followed by western blot; OTK wild-type compared with OTK-CD4. (In general: Mobility shift assays separate free from complexed probe on a gel.)
The target in assay [4] is Drosophila melanogaster OTK1-5 ectodomain (residues 23-580), wild type (Drosophila melanogaster) (UniProt Q6AWJ9). The assay can be described thus: SEC-MALS; Superdex 200 Increase 10/300, 15 mM HEPES pH 7.4, 150 mM NaCl; initial protein concentrations 2.0, 1.0 and 0.5 mg/mL; both purified.
Assay [5] deals with T1, PlexA_(ecto) (full-length ectodomain of Drosophila Plexin A, all ten domains, residues 28-1272), biotinylated (Drosophila) (UniProt Q9V491).
T1 sequence (chain, biotin on the biotin ligase recognition site (in vivo biotinylation)): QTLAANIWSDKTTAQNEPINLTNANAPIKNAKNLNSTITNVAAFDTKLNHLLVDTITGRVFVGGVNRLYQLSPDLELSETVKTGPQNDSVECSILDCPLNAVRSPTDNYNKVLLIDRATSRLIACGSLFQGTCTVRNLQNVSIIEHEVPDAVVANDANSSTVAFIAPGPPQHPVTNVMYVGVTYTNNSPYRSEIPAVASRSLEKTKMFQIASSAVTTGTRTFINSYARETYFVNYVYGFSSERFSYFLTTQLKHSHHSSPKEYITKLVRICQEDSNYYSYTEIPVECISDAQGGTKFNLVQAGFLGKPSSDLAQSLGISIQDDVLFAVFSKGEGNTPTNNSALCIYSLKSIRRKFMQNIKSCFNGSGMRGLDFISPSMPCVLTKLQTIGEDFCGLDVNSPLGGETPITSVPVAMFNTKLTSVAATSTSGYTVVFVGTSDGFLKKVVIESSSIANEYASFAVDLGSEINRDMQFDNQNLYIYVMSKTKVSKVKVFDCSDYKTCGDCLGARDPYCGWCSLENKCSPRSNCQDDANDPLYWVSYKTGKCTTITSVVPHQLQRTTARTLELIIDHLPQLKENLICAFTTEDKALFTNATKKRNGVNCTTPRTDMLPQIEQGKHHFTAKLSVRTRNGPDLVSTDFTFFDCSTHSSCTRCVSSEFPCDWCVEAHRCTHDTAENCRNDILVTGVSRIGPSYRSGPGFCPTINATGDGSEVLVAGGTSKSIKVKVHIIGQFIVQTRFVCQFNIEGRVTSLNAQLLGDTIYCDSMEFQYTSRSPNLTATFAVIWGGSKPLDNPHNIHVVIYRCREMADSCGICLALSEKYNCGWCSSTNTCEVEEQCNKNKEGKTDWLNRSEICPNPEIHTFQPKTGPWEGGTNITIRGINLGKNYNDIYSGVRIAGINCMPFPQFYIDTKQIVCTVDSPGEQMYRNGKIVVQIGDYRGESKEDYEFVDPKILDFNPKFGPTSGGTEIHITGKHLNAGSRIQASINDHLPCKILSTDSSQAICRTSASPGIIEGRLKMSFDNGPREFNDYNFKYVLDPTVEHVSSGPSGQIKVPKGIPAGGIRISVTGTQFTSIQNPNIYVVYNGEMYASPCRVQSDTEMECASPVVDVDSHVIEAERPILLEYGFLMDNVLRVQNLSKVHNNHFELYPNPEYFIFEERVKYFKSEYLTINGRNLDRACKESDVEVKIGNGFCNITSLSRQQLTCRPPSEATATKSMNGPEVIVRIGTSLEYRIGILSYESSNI
Put plainly: SPR; equilibrium, apparent KD; biotinylated PlexA constructs immobilised on SA chip from dialysed conditioned medium; Biacore T200, PBS, 0.05% Tween 20, 25°C; both purified. Background: In SPR one partner is held on a chip, and binding of the other changes the refractive index at the surface.

The target of assay [6] is T2, PlexA1-4 (first four domains of Drosophila Plexin A, residues 28-730), biotinylated (Drosophila) (UniProt Q9V491).
T2 sequence (chain, biotin on the biotin ligase recognition site (in vivo biotinylation)): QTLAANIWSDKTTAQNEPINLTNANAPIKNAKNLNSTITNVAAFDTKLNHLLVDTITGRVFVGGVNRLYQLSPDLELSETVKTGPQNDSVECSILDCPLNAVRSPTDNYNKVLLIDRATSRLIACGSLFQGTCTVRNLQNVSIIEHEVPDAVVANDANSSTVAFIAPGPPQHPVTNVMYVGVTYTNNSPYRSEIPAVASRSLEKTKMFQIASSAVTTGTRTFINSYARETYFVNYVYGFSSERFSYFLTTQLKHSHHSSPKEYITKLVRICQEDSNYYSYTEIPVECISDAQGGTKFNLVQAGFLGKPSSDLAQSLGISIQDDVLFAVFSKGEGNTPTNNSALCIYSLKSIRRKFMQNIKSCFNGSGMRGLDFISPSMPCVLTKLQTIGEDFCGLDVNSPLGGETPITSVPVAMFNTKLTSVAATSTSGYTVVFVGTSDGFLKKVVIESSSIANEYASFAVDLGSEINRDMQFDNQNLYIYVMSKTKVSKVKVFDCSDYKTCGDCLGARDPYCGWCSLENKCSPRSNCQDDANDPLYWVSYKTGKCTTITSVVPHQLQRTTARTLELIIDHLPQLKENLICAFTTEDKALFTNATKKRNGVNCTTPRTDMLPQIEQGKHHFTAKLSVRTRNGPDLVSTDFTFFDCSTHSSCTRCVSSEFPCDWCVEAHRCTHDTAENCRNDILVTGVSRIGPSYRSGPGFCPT
Described as above.

Assay [7] has as its target OTK1-5 K237A ectodomain (Drosophila melanogaster) (UniProt Q6AWJ9). The assay can be described thus: AUC; sedimentation velocity, 20°C, 40000 rpm, 15 mM HEPES pH 7.4, 150 mM NaCl; both purified.
Assay [8] shares this target. Put plainly: single-particle negative-stain electron microscopy; 8 μg/ml protein in 15 mM HEPES pH 7.4, 150 mM NaCl, stained with 0.75% uranyl formate; both purified.

B1: OTK (residues 23-607: ectodomain, transmembrane segment, short cytoplasmic linker) with C-terminal mClover or mRuby2, in COS-7 cells (receptor, UniProt Q6AWJ9 23-607)
chain: SSSRFQRVPQSQSVVENESVKFECESTDSYSELHYDWLHNGHRIAYDKRVHQIGSNLHIEAVRRTEDVGNYVCIATNLASGAREASPPAKLSVIYLESASVQLLGSNRNELLLKCHVEGASGDLEPLEIEWYRNSEKLSTWKNVQLDQHRLIIRQPGSEDDGLYRCTASNAAGRVMSKQGYVYQSSVKCLPRLPRRKNEKMMESWDKQTFLCRGKRGGAAGLEALPAAPEDLRIVQGPIGQSIIKEGEPTALTCLYELPDELKNQRIQLRWRKDGKLLRQVELGGSAPIPGHSFDSGKDALLREDARLVLHKQNGTLSFASIIASDAGQYQCQLQLEAHAPINSSPGILEVIEQLKFVPQPTSKNLELDAVVAKVHCKAQGTPTPQVQWVRDGENTTLPDHVEVDANGTLIFRNVNSEHRGNYTCLATNSQGQINATVAINVVVTPKFSVPPVGPIETSEQGTVVMHCQAIGDPKPTIQWDKDLKYLSENNTDRERFRFLENGTLEIRNVQVEDEGSYGCTIGNSAGLKREDVQLVVKTTGDGFAPEESGGDGFLVTRAVLITMTVALAYIVLVVGLMLWCRYRR
Turning to B1, the binding entry in assay [1] is “no binding”.

B2: mClover-tagged OTK wild-type (residues 23-607), solubilised from HEK293T cells (receptor, UniProt Q6AWJ9 23-607)
chain: SSSRFQRVPQSQSVVENESVKFECESTDSYSELHYDWLHNGHRIAYDKRVHQIGSNLHIEAVRRTEDVGNYVCIATNLASGAREASPPAKLSVIYLESASVQLLGSNRNELLLKCHVEGASGDLEPLEIEWYRNSEKLSTWKNVQLDQHRLIIRQPGSEDDGLYRCTASNAAGRVMSKQGYVYQSSVKCLPRLPRRKNEKMMESWDKQTFLCRGKRGGAAGLEALPAAPEDLRIVQGPIGQSIIKEGEPTALTCLYELPDELKNQRIQLRWRKDGKLLRQVELGGSAPIPGHSFDSGKDALLREDARLVLHKQNGTLSFASIIASDAGQYQCQLQLEAHAPINSSPGILEVIEQLKFVPQPTSKNLELDAVVAKVHCKAQGTPTPQVQWVRDGENTTLPDHVEVDANGTLIFRNVNSEHRGNYTCLATNSQGQINATVAINVVVTPKFSVPPVGPIETSEQGTVVMHCQAIGDPKPTIQWDKDLKYLSENNTDRERFRFLENGTLEIRNVQVEDEGSYGCTIGNSAGLKREDVQLVVKTTGDGFAPEESGGDGFLVTRAVLITMTVALAYIVLVVGLMLWCRYRR
As to B2, the binding result in assay [2] and in assay [3] was “no binding” each time.

B3: Drosophila melanogaster OTK1-5 ectodomain (residues 23-580), wild type (domain or fragment, UniProt Q6AWJ9 23-580)
chain: SSSRFQRVPQSQSVVENESVKFECESTDSYSELHYDWLHNGHRIAYDKRVHQIGSNLHIEAVRRTEDVGNYVCIATNLASGAREASPPAKLSVIYLESASVQLLGSNRNELLLKCHVEGASGDLEPLEIEWYRNSEKLSTWKNVQLDQHRLIIRQPGSEDDGLYRCTASNAAGRVMSKQGYVYQSSVKCLPRLPRRKNEKMMESWDKQTFLCRGKRGGAAGLEALPAAPEDLRIVQGPIGQSIIKEGEPTALTCLYELPDELKNQRIQLRWRKDGKLLRQVELGGSAPIPGHSFDSGKDALLREDARLVLHKQNGTLSFASIIASDAGQYQCQLQLEAHAPINSSPGILEVIEQLKFVPQPTSKNLELDAVVAKVHCKAQGTPTPQVQWVRDGENTTLPDHVEVDANGTLIFRNVNSEHRGNYTCLATNSQGQINATVAINVVVTPKFSVPPVGPIETSEQGTVVMHCQAIGDPKPTIQWDKDLKYLSENNTDRERFRFLENGTLEIRNVQVEDEGSYGCTIGNSAGLKREDVQLVVKTTGDGFAPEESGGDGFLVTR
Consider B3, for which the binding entry in assay [4] is “no binding (tested: 2.0 mg/mL)”.

B4: OTK1-5 K237A ectodomain (domain or fragment, UniProt Q6AWJ9 23-580)
chain: SSSRFQRVPQSQSVVENESVKFECESTDSYSELHYDWLHNGHRIAYDKRVHQIGSNLHIEAVRRTEDVGNYVCIATNLASGAREASPPAKLSVIYLESASVQLLGSNRNELLLKCHVEGASGDLEPLEIEWYRNSEKLSTWKNVQLDQHRLIIRQPGSEDDGLYRCTASNAAGRVMSKQGYVYQSSVKCLPRLPRRKNEKMMESWDKQTFLCRGARGGAAGLEALPAAPEDLRIVQGPIGQSIIKEGEPTALTCLYELPDELKNQRIQLRWRKDGKLLRQVELGGSAPIPGHSFDSGKDALLREDARLVLHKQNGTLSFASIIASDAGQYQCQLQLEAHAPINSSPGILEVIEQLKFVPQPTSKNLELDAVVAKVHCKAQGTPTPQVQWVRDGENTTLPDHVEVDANGTLIFRNVNSEHRGNYTCLATNSQGQINATVAINVVVTPKFSVPPVGPIETSEQGTVVMHCQAIGDPKPTIQWDKDLKYLSENNTDRERFRFLENGTLEIRNVQVEDEGSYGCTIGNSAGLKREDVQLVVKTTGDGFAPEESGGDGFLVTR
As to B4, the binding entry in assay [5] is “no binding (tested: up to 125 μM)”; in assay [6], “no binding (tested: up to 125 μM)”; in assay [7], “no binding (tested: up to a concentration of 80 μM)”; in assay [8], “no binding (tested: 8 μg/ml)”.

For the origin of these results see publication PMC7203548.
